Data as given in PubChem BioAssay AID1259308 (NCATS, 2017)

Test: 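Candidate targets for better recombinant protein yield in mammalian cells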 (primary screen)
Cell system: human HEK293 embryonic kidney cells stably expressing firefly luciferase (HEK-CMV-Luc2-Hygro)
Knock-down reagent: single siRNA against human genes, 0.8 pmol siRNA per well
Time to read-out: 72 h
Measured: 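Luciferase light (ONE-Glo) measured on one replicate plate set and viability (CellTiter-Glo) on the other, scaled to a negative control siRNA, with robust z-scores and luciferase per cell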
Scale: total luciferase, z-score and total luciferase, % of control: higher = more reporter protein produced; luciferase per cell, z-score: higher = more reporter output per viable cell
Rule for the call: 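An siRNA counts as active if its total luciferase robust z-score exceeds 3; genes with two or more such siRNAs out of three were retested with fresh siRNAs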
Meaning of the calls: active = raised luciferase; inactive = no rise
In all, the deposit lists about 59,000 reagents; shown is a part drawn at random. About 1,510 of them (2.6%) were called active. 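Calls use total luciferase alone and ignore viability, so some active siRNAs may act by altering cell number.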 Reagents against one gene are numbered here. Further read-outs or replicates are left out here.

gene,reagent no.,"total luciferase, z-score","total luciferase, % of control","luciferase per cell, z-score",Outcome
OR2W5,1,-0.672,68.5,0.224,inactive
OR2W5,2,0.893,99.7,0.11,inactive
OR2W5,3,-0.522,71.5,1.44,inactive
RPL10L (ribosomal protein L10 like),1,-1.44,53.2,2.48,inactive
RPL10L (ribosomal protein L10 like),2,0.632,94.5,0.826,inactive
RPL10L (ribosomal protein L10 like),3,-1.86,44.8,-1.71,inactive
"HLA-DQB2 (major histocompatibility complex, class II, DQ beta 2)",1,-3.19,18.4,-3.4,inactive
"HLA-DQB2 (major histocompatibility complex, class II, DQ beta 2)",2,-0.514,71.7,-0.546,inactive
"HLA-DQB2 (major histocompatibility complex, class II, DQ beta 2)",3,-1.31,55.9,0.176,inactive
PITPNC1 (phosphatidylinositol transfer protein cytoplasmic 1),1,2.78,137,2.51,inactive
PITPNC1 (phosphatidylinositol transfer protein cytoplasmic 1),2,-1.11,59.8,-1.13,inactive
PITPNC1 (phosphatidylinositol transfer protein cytoplasmic 1),3,-0.0467,81,-0.746,inactive
PITPNC1 (phosphatidylinositol transfer protein cytoplasmic 1),4,3.24,146,2.49,active
PITPNC1 (phosphatidylinositol transfer protein cytoplasmic 1),5,0.461,91.1,0.826,inactive
PITPNC1 (phosphatidylinositol transfer protein cytoplasmic 1),6,1.08,103,0.602,inactive
RASSF7 (Ras association domain family member 7),1,-0.256,76.8,-0.148,inactive
RASSF7 (Ras association domain family member 7),2,-0.165,78.6,0.00123,inactive
RASSF7 (Ras association domain family member 7),3,-0.35,74.9,-0.264,inactive
PXMP2 (peroxisomal membrane protein 2),1,-0.518,71.6,-0.73,inactive
PXMP2 (peroxisomal membrane protein 2),2,-0.221,77.5,-0.66,inactive
PXMP2 (peroxisomal membrane protein 2),3,-0.757,66.8,-0.872,inactive
IFI27 (interferon alpha inducible protein 27),1,-2.16,38.9,-1.85,inactive
IFI27 (interferon alpha inducible protein 27),2,0.25,86.9,0.643,inactive
IFI27 (interferon alpha inducible protein 27),3,0.323,88.3,0.247,inactive
TNFRSF11B (TNF receptor superfamily member 11b),1,1.33,108,1.23,inactive
TNFRSF11B (TNF receptor superfamily member 11b),2,-0.221,77.5,-0.422,inactive
TNFRSF11B (TNF receptor superfamily member 11b),3,-0.867,64.6,-0.965,inactive
BICD1 (BICD cargo adaptor 1),1,-0.38,74.3,0.719,inactive
BICD1 (BICD cargo adaptor 1),2,-0.643,69.1,-0.156,inactive
BICD1 (BICD cargo adaptor 1),3,-0.365,74.6,-0.584,inactive
OR10J1 (olfactory receptor family 10 subfamily J member 1),1,0.546,92.8,-0.0515,inactive
OR10J1 (olfactory receptor family 10 subfamily J member 1),2,-0.929,63.4,-0.401,inactive
OR10J1 (olfactory receptor family 10 subfamily J member 1),3,-0.397,74,-0.946,inactive
NCSTN (nicastrin),1,-0.0634,80.6,1.33,inactive
NCSTN (nicastrin),2,0.208,86,0.455,inactive
NCSTN (nicastrin),3,-0.843,65.1,-1.04,inactive
MSH5 (mutS homolog 5),1,0.445,90.7,0.0916,inactive
MSH5 (mutS homolog 5),2,-1.57,50.7,-1.68,inactive
MSH5 (mutS homolog 5),3,1.08,103,0.536,inactive
ITSN1 (intersectin 1),1,-0.401,73.9,-0.689,inactive
ITSN1 (intersectin 1),2,0.622,94.3,0.00395,inactive
ITSN1 (intersectin 1),3,-1.15,58.9,-1.54,inactive

The list goes on (2 carried over from the part before).
gene,reagent no.,"total luciferase, z-score","total luciferase, % of control","luciferase per cell, z-score",Outcome
ITSN1 (intersectin 1),2,0.622,94.3,0.00395,inactive
ITSN1 (intersectin 1),3,-1.15,58.9,-1.54,inactive
KDM1A (lysine demethylase 1A),1,-0.0894,80.1,0.235,inactive
KDM1A (lysine demethylase 1A),2,1.7,116,1.11,inactive
KDM1A (lysine demethylase 1A),3,-0.319,75.5,0.0781,inactive
EDEM3 (ER degradation enhancing alpha-mannosidase like protein 3),1,-0.594,70.1,-0.635,inactive
EDEM3 (ER degradation enhancing alpha-mannosidase like protein 3),2,1.4,110,1.69,inactive
EDEM3 (ER degradation enhancing alpha-mannosidase like protein 3),3,-1.37,54.6,-1.56,inactive
RBM26 (RNA binding motif protein 26),1,1.86,119,1.01,inactive
RBM26 (RNA binding motif protein 26),2,-1.32,55.7,-1.17,inactive
RBM26 (RNA binding motif protein 26),3,0.178,85.4,0.0446,inactive
MLYCD (malonyl-CoA decarboxylase),1,-1.55,51.1,-1.98,inactive
MLYCD (malonyl-CoA decarboxylase),2,1.26,107,0.602,inactive
MLYCD (malonyl-CoA decarboxylase),3,0.197,85.8,0.657,inactive
FBXL12 (F-box and leucine rich repeat protein 12),1,2.6,134,1.19,inactive
FBXL12 (F-box and leucine rich repeat protein 12),2,0.618,94.2,-0.0201,inactive
FBXL12 (F-box and leucine rich repeat protein 12),3,-0.051,80.9,-0.91,inactive
MSL3B (MSL complex subunit 3B),1,-2.36,35,-1.29,inactive
MSL3B (MSL complex subunit 3B),2,-0.0971,80,-0.0823,inactive
MSL3B (MSL complex subunit 3B),3,1.66,115,1.07,inactive
FAM110C (family with sequence similarity 110 member C),1,1.2,106,0.528,inactive
FAM110C (family with sequence similarity 110 member C),2,-1.16,58.8,-1.15,inactive
FAM110C (family with sequence similarity 110 member C),3,-0.676,68.4,-0.953,inactive
RNF125 (ring finger protein 125),1,1.73,116,1.19,inactive
RNF125 (ring finger protein 125),2,0.284,87.5,0.406,inactive
RNF125 (ring finger protein 125),3,0.599,93.8,0.587,inactive
SET (SET nuclear proto-oncogene),1,1.59,114,2.58,inactive
SET (SET nuclear proto-oncogene),2,-0.194,78,0.469,inactive
SET (SET nuclear proto-oncogene),3,-1.06,60.7,-1.08,inactive
NUP205 (nucleoporin 205),1,-0.789,66.2,0.347,inactive
NUP205 (nucleoporin 205),2,-0.54,71.1,0.578,inactive
NUP205 (nucleoporin 205),3,-0.552,70.9,-0.683,inactive
MLST8 (MTOR associated protein MLST8),1,-0.423,73.5,-0.598,inactive
MLST8 (MTOR associated protein MLST8),2,-0.264,76.6,0.224,inactive
MLST8 (MTOR associated protein MLST8),3,-1.45,53,-0.922,inactive
